Assay results published in article PMC12670160, “A drug-repurposing screen of FDA- and EMA-approved drugs identifies two NF-κB inhibitors active against eumycetoma” (Journal of Antimicrobial Chemotherapy, 2025).
Structures can show the parent of a compound that is named as a salt. About 130 (2.5%) of roughly 5,300 compounds showed an effect of 50% or more. The list shows a part of the results. Square brackets hold non-standard residues; d marks the D form. Peptide text beside a SMILES is read from it. pGlu = O=C1CC[C@@H](C(=O)O)N1; Thz = O=C(O)[C@@H]1CSCN1

tested on: M. mycetomatis strain mm55; settings: primary screen, metabolic activity vs growth control; 96 h, 2 µM; inhibitor

SMILES | % viability
O=c1[nH]cnc2nc[nH]c12 [ONC0004702, hypoxanthine] | 102.1%
CCOc1nc2cccc(C(=O)O)c2n1Cc1ccc(-c2ccccc2-c2nnn[nH]2)cc1 [ONC0004203, candesartan] | 113.6%
CC[C@H](C)[C@H](N)C(=O)O [ONC0003555, isoleucine] | 110.6%
CC(=O)SC[C@@H](C)C(=O)N1CCC[C@H]1C(=O)N[C@@H](Cc1ccccc1)C(=O)O [ONC0001975, alacepril] | 73.05%
NC[C@@H]1O[C@H](C23CC4CC(CC(C4)C2)C3)Cc2c1ccc(O)c2O [ONC0001735, a77636] | 67.62%
O=c1[nH]c2ccccc2n1CCN1CCN(c2cccc(C(F)(F)F)c2)CC1 [ONC0005440, flibanserin] | 115.9%
COc1cc2ncnc(Nc3cccc(Cl)c3F)c2cc1OC(=O)N1CCN(C)C[C@H]1C [ONC0001063, azd3759] | 65.07%
c1ccc(-c2ccc(C(c3ccccc3)n3ccnc3)cc2)cc1 (stereo not shown) [ONC0003890, bifonazole] | 189.2%
Oc1c(Cl)cc(Cl)c2cccnc12 [ONC0002821, chloroxine] | 92.76%
O=C1CC[C@@H](C(=O)N2CSC[C@H]2C(=O)O)N1 [ONC0004150, pidotimod] ([pGlu]-[Thz]-OH) | 121.4%
CCn1c(=O)c(-c2ccc(Cl)cc2Cl)cc2cnc(Nc3ccc(N4CCNCC4)c(F)c3)nc21 [ONC0000042, frax486] | 82.48%
COc1ccc(Cl)cc1NC(=O)Nc1cc(C)nc2ccccc12 [ONC0002997, pq401] | 73.37%
CN(C)CCC(c1ccc(Br)cc1)c1ccccn1 (stereo not shown) [ONC0002410, brompheniramine maleate] | 81.1%
COc1cc2ncnc(Nc3cccc(Br)c3)c2cc1OC [ONC0002251, pd153035 hydrochloride] | 84.53%
CCC1=C[C@@H]2CN3CCc4c([nH]c5ccccc45)[C@@](C(=O)OC)(C2)[C@@H]13 [ONC0004820, catharanthine] | 91.81%
O=C(Nc1cccnc1)c1cc(-c2ccnc(F)c2)ccc1OCc1ccccc1 [ONC0004418, gsk2578215a] | 78.41%
CC(C)(O)C(=O)N1CCN(c2ccc(C(F)(F)F)c(C3=C(c4c[nH]c5ccccc45)C(=O)NC3=O)c2)CC1 [ONC0002496, tcs21311] | 71.12%
COC(=O)C1=C(C)NC(C)=C(C(=O)OC(C)(C)CN(C)CCC(c2ccccc2)c2ccccc2)C1c1cccc([N+](=O)[O-])c1 (stereo not shown) [ONC0005438, lercanidipine] | 120.1%
C[C@]12CCC(=O)C=C1CC[C@@H]1[C@@H]2CC[C@@]2(C)[C@H]1CC[C@]2(O)C(=O)CO [ONC0002192, cortodoxone] | 74.08%
Cc1ccc(S(=O)(=O)NCc2ccccc2)cc1 [ONC0000132, bts] | 89.06%
CCC1(c2ccccc2)C(=O)NCNC1=O [ONC0000499, primidone] | 68.11%

11 entries from above, set out differently.
SMILES	% viability
CC[C@H](C)[C@H](N)C(=O)O [ONC0003555, isoleucine]	110.6%
NC[C@@H]1O[C@H](C23CC4CC(CC(C4)C2)C3)Cc2c1ccc(O)c2O [ONC0001735, a77636]	67.62%
COc1cc2ncnc(Nc3cccc(Cl)c3F)c2cc1OC(=O)N1CCN(C)C[C@H]1C [ONC0001063, azd3759]	65.07%
Oc1c(Cl)cc(Cl)c2cccnc12 [ONC0002821, chloroxine]	92.76%
COc1ccc(Cl)cc1NC(=O)Nc1cc(C)nc2ccccc12 [ONC0002997, pq401]	73.37%
CN(C)CCC(c1ccc(Br)cc1)c1ccccn1 (stereo not shown) [ONC0002410, brompheniramine maleate]	81.1%
COc1cc2ncnc(Nc3cccc(Br)c3)c2cc1OC [ONC0002251, pd153035 hydrochloride]	84.53%
CCC1=C[C@@H]2CN3CCc4c([nH]c5ccccc45)[C@@](C(=O)OC)(C2)[C@@H]13 [ONC0004820, catharanthine]	91.81%
COC(=O)C1=C(C)NC(C)=C(C(=O)OC(C)(C)CN(C)CCC(c2ccccc2)c2ccccc2)C1c1cccc([N+](=O)[O-])c1 (stereo not shown) [ONC0005438, lercanidipine]	120.1%
C[C@]12CCC(=O)C=C1CC[C@@H]1[C@@H]2CC[C@@]2(C)[C@H]1CC[C@]2(O)C(=O)CO [ONC0002192, cortodoxone]	74.08%
CCC1(c2ccccc2)C(=O)NCNC1=O [ONC0000499, primidone]	68.11%

(listing goes on)

SMILES | % viability
COc1cc(-c2ccc(/N=N/c3ccc4c(S(=O)(=O)O)cc(S(=O)(=O)O)c(N)c4c3O)c(OC)c2)ccc1/N=N/c1ccc2c(S(=O)(=O)O)cc(S(=O)(=O)O)c(N)c2c1O [ONC0002750, chicagoskyblue6b] | 94.85%
CN/C(=N/CCSCc1nc[nH]c1C)NC#N [ONC0000657, cimetidine] | 137.7%
CCCCc1oc2ccc(NS(C)(=O)=O)cc2c1C(=O)c1ccc(OCCCN(CCCC)CCCC)cc1 [ONC0004606, dronedarone hcl multaq] | 82.39%
CC(C)(N)CC12CC3CC(CC(C3)C1)C2 [ONC0004056, somantadine] | 120.7%
COc1cc(Nc2c(C#N)cnc3cc(OCCCN4CCN(C)CC4)c(OC)cc23)c(Cl)cc1Cl [ONC0000059, bosutinib] | 126.5%
CC(C)Oc1ccc(-c2nn([C@@H](C)c3oc4ccc(F)cc4c(=O)c3-c3cccc(F)c3)c3ncnc(N)c23)cc1F [ONC0001037, umbralisib] | 81.81%
O=C(CCc1ccc(O)cc1)c1c(O)cc(O)cc1O[C@@H]1O[C@H](CO)[C@@H](O)[C@H](O)[C@@H]1O [ONC0005253, phlorizin phloridzin] | 154.3%
Cn1cc[nH]c1=S [ONC0000508, methimazole] | 57.54%
Nc1ncnc2[nH]nc(Nc3ccc(F)cc3)c12 [ONC0001374, cgp57380] | 128.9%
CCOC(=O)[C@H]1O[C@@H]1C(=O)N[C@@H](CC(C)C)C(=O)NCCC(C)C [ONC0000354, aloxistatin] | 61.2%
CCCCCCCCCCCCCCCC[N+](C)(C)Cc1ccccc1 [ONC0003644, benzyldimethylhexadecylammonium chloride hydrate] | 69.71%
CN1CC[C@@]2(C)c3cc(O)ccc3N(C)[C@@H]12 [ONC0002771, eseroline] | 104.2%
COc1ccc2[nH]c(SCc3ncc(C)c(OC)c3C)nc2c1 [ONC0003373, omeprazole sulphide] | 64.17%
Oc1c(CN2CCCC2)cc(COCc2ccccc2)c2cccnc12 [ONC0003065, uc112] | 68.61%
CCOC(=O)C(=O)Nc1cccc(OC)c1C(N)=O [ONC0002163, wy16922] | 57.24%
O=S1(=O)N[C@H]2CCCN2c2ccccc21 [ONC0003477, s 18986] | 56.01%
O=C(O)CC(S)C(=O)O (stereo not shown) [ONC0003768, mercaptosuccinicacid] | 114.3%
Oc1cc2c(cc1O)C(c1ccccc1)CNCC2 (stereo not shown) [ONC0000005, skf38393] | 91.13%
CN(C)C/C=C/C(=O)Nc1cccc(C(=O)Nc2cccc(Nc3ncc(Cl)c(-c4c[nH]c5ccccc45)n3)c2)c1 [ONC0002061, thz2] | 66.57%
Cn1c(=O)c2c(ncn2CC2OCCO2)n(C)c1=O [ONC0002817, doxofylline] | 69.69%
O=C(NCCCN1CCOCC1)c1cnn2c(-c3ccccc3)cc(-c3ccccc3)nc12 [ONC0001702, reversan] | 75.13%

SMILES | % viability
O=C1N=C2NN=CC2C(=O)N1 (stereo not shown) [ONC0003735, oxypurinol] | 101.2%
CC1(C)[C@H]2CC[C@]1(C)[C@@H](O)[C@H]2O [ONC0002184, cisexocamphanediol23] | 85.44%
Cc1cc(=O)n(-c2ccccc2)[nH]1 [ONC0002190, ndemethylantipyrine] | 84.29%
Cc1cc(/C=c2/sc3nc4ccccc4n3c2=O)c(C)n1-c1ccccc1 [ONC0005457, itx3] | 65.92%
CC(=O)N(CC(O)CO)c1c(I)c(C(=O)NCC(O)CO)c(I)c(C(=O)NCC(O)CO)c1I (stereo not shown) [ONC0004075, iohexol] | 97.24%
CN1CCN(CC(=O)N2c3ccccc3C(=O)Nc3cccnc32)CC1 [ONC0000621, pirenzepine hydrochloride] | 101.3%
CC(=O)N(CC(O)CO)c1c(I)c(C(=O)NCCO)c(I)c(C(=O)NCC(O)CO)c1I (stereo not shown) [ONC0002383, ioxilan] | 101.2%
CC(C)NC[C@@H](C(=O)N1CCN(c2ncnc3c2[C@H](C)C[C@H]3O)CC1)c1ccc(Cl)cc1 [ONC0005076, ipatasertib gdc0068] | 92.24%
Cc1ccc([C@@H]2O[C@H](CO)[C@@H](O)[C@H](O)[C@H]2O)cc1Cc1ccc(-c2ccc(F)cc2)s1 [ONC0005488, canagliflozin] | 88.75%
Cc1cc2nc3c(=O)[nH]c(=O)nc-3n(C[C@H](O)[C@H](O)[C@H](O)COP(=O)(O)O)c2cc1C [ONC0003993, riboflavin 5phosphate sodium] | 59.1%
Cc1cc(Nc2ncnc3ccc(NC4=NC(C)(C)CO4)cc23)ccc1Oc1ccn2ncnc2c1 [ONC0002477, tucatinib] | 65.33%
COc1ccc(S(=O)(=O)N2CCC[C@H]2C(=O)Nc2cc(C)cc(C)c2)cc1 [ONC0003585, act462206] | 65.92%
Cc1cccc(Oc2nc3c(C)cccn3c(=O)c2/C=C(\C#N)c2nc3ccccc3s2)c1 [ONC0001281, ccg63802] | 68.65%
OCC(CO)N[C@H]1C[C@](O)(CO)[C@@H](O)[C@H](O)[C@H]1O [ONC0002570, voglibose] | 62.37%
CCOC(CN1CCN(CC(C)C(=O)c2ccccc2)CC1)c1ccccc1 (stereo not shown) [ONC0005195, eprazinone 2hcl] | 128%
CC(C)=CCC[C@](C)(O[C@@H]1O[C@H](CO)[C@@H](O)[C@H](O)[C@H]1O)[C@H]1CC[C@]2(C)[C@@H]1[C@H](O)C[C@@H]1[C@@]3(C)CC[C@H](O[C@@H]4O[C@H](CO)[C@@H](O)[C@H](O)[C@H]4O[C@@H]4O[C@H](CO)[C@@H](O)[C@H](O)[C@H]4O)C(C)(C)[C@@H]3CC[C@]12C [ONC0001990, ginsenoside rd] | 112.3%
C=CCNc1ncnc2ccc(Br)cc12 [ONC0001746, smer28] | 58.41%
OC(CCN1CCCCC1)(c1ccccc1)c1ccccc1 [ONC0002866, pridinol methanesulfonate] | 103.1%
COc1cc(Nc2ncc3c(n2)-c2ccc(Cl)cc2C(c2c(F)cccc2OC)=NC3)ccc1C(=O)O [ONC0004637, mln8237 alisertib] | 72.25%
